# Reference: paper PMC7862700
# Only a part is listed here, and it is no random draw. At the low end of the ranking the order means little.
# Assays:
# Test in all cases: DAPPL (digital affinity profiling via proximity ligation, sequencing)
# Conditions in all cases: 10 mM Tris-HCl pH 7.5, 50 mM NaCl, 1 mM DTT, 4% glycerol, room temperature, 30 min; GST-TFs on glutathione beads, 16-mer random dsDNA library, 0.1% …; high values mean tight binding; double strand, one strand shown; scale: fold enrichment (6-mer frequency, TF over GST control)
# [1] = biological target: T1, ELK1 (UniProt P19419)
# T1 sequence: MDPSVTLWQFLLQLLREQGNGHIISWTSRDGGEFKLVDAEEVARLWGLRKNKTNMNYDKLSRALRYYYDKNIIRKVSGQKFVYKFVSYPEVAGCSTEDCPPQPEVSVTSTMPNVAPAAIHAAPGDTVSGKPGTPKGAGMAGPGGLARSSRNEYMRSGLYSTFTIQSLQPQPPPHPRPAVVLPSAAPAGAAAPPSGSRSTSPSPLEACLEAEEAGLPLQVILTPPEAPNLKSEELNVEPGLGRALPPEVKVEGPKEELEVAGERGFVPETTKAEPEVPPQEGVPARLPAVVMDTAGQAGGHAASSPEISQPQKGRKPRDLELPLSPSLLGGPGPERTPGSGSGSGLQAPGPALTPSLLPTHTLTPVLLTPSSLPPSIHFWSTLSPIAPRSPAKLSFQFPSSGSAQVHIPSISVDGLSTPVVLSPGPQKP
# [2] = biological target: T2, ELK3 (UniProt P41970)
# T2 sequence: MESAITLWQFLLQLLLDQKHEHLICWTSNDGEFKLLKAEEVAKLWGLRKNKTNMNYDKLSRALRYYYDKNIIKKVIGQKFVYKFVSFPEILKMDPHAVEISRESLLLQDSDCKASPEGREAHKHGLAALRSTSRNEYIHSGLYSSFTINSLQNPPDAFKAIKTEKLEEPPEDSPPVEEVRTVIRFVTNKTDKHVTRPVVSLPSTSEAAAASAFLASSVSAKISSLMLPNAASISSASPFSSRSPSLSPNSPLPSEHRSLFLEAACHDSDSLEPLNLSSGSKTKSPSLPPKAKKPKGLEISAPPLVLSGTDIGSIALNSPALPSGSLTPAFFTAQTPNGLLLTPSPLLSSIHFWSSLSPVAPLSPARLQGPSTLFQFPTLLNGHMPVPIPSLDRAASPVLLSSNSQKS
# [3] = biological target: T3, SPIC (UniProt Q8N5J4)
# T3 sequence: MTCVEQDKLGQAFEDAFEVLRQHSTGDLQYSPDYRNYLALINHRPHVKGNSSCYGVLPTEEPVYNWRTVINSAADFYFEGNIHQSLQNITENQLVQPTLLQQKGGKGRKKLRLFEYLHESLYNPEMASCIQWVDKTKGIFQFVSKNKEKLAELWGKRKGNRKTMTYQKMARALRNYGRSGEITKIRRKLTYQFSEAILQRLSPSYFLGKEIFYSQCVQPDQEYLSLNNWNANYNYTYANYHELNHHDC
# [4] = biological target: T4, ETS2 (UniProt P15036)
# T4 sequence: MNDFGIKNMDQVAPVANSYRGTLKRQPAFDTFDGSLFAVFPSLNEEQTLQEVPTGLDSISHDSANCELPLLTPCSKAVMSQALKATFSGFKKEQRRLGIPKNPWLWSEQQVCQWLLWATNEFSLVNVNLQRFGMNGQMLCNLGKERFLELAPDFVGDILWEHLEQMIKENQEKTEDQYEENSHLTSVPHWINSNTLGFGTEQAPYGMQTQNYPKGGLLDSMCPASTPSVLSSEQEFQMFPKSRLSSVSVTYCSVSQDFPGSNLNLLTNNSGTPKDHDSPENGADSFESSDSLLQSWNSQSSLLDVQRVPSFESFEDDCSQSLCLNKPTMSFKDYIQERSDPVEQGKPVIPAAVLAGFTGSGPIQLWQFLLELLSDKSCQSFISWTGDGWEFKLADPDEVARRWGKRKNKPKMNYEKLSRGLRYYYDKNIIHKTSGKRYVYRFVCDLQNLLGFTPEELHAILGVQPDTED
# [5] = biological target: T5, ETV3 (UniProt P41162-2)
# T5 sequence: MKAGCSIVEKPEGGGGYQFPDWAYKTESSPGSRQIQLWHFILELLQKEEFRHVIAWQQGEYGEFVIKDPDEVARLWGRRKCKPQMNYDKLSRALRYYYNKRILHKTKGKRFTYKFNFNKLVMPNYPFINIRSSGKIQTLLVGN
Sequence,binding signal [1],binding signal [2],binding signal [3],binding signal [4],binding signal [5]
CAAGTC,0.91,0.87,0.857,0.822,0.822
GATGAG,0.805,0.798,0.917,0.853,0.841
GGCAAA,0.924,0.926,0.894,0.928,0.879
ACGCAT,0.763,0.817,0.84,0.789,0.809
GATCAG,0.79,0.808,0.737,0.803,0.787
CCGTGA,0.184,0.179,0.182,0.188,0.195
GTGGGG,0.568,0.648,0.582,0.612,0.644
CAGGGT,0.875,0.751,0.763,0.859,0.79
GCGGCC,0.843,0.63,0.72,0.726,0.776
AGCGCA,0.938,0.943,0.848,0.963,0.992
GCGGGG,0.445,0.513,0.523,0.464,0.445
TGTGAA,0.848,0.786,0.713,0.844,0.78
TACCGT,0.674,0.712,0.661,0.7,0.656
GATCGT,0.402,0.381,0.447,0.411,0.417
GAGGGC,0.626,0.559,0.586,0.625,0.561
CGCGGT,0.886,0.787,0.869,0.838,0.858
GACACA,0.955,0.922,0.844,0.962,0.888
ATCGAG,0.895,0.914,0.951,0.914,0.872
AGTGAA,0.821,0.87,0.806,0.857,0.903
AACCGT,0.517,0.604,0.494,0.543,0.569

# In another format: results already given
Sequence | binding signal [1] | binding signal [2] | binding signal [3] | binding signal [4] | binding signal [5]
CAGGGT | 0.875 | 0.751 | 0.763 | 0.859 | 0.79
GCGGGG | 0.445 | 0.513 | 0.523 | 0.464 | 0.445
AGTGAA | 0.821 | 0.87 | 0.806 | 0.857 | 0.903
